Values of other authors, collected in patent US20080268043A1, “Controlled Release Compositions Comprising an Antipsychotic Agent” (ELAN PHARMA INTERNATIONAL LIMITED, priority 2005, published 2008).
Where a name gives a salt, the structure may show the parent alone.

Tests used:
adrenergic α1 receptors = conditions: read-out: IC50 adrenergic α1 receptors; receptors in the brain
adrenergic α2 receptors = conditions: read-out: IC50 adrenergic α2 receptors; receptors in the brain

- IC50 (adrenergic α1 receptors): 94 nM
- IC50 (adrenergic α2 receptors): 271 nM
Structure (SMILES): OCCOCCN1CCN(C2=Nc3ccccc3Sc3ccccc32)CC1 [Quetiapine fumarate, 2-[2-(4-dibenzo[b,f] [1.4]thiazepin-11-yl-1-piperazinyl)ethoxy]-ethanol fumarate (2:1) (salt)]
